Assay results from article PMC8384837.
Numbering of substitutions follows the chain as printed. This is one part of the list. For some of these results: At the low end of the ranking the order means little. For some of these results: Construct or isoform of the protein are uncertain.

Tests used:
Conditions in all cases: yeast three-hybrid, YBZ-1, SC-Leu-His + 0.5 mM 3-AT, 4 days
[1] = molecular target: T1, PUM1 PUF domain R1-GAS S863G + R864A + Q867S (UniProt Q14671)
T1 sequence: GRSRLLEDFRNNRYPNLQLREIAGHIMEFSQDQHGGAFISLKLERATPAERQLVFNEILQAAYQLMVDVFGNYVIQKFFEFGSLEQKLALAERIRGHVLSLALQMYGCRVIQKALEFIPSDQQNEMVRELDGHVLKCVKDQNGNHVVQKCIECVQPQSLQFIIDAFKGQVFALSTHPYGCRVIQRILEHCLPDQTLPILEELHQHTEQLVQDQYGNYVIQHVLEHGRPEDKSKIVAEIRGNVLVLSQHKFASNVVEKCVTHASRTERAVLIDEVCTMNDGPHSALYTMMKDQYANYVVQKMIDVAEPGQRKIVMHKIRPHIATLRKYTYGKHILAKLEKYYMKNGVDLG

[2] = molecular target: T2, PUM1 PUF domain R1-GGE S863G + R864G + Q867E (Homo sapiens) (UniProt Q14671)
T2 sequence: T1 sequence with A37G, S40E

[3] = molecular target: T3, PUM1 PUF domain R6-SWD R7-NPG N1043S + Y1044W + Q1047D + S1079N + N1080P + E1083G (UniProt Q14671)
T3 sequence: T1 sequence with G36S, A37R, S40Q, N216S, Y217W, Q220D, S252N, N253P, E256G

[4] = molecular target: T4, PUM1 PUF domain R6-AWS N1043A + Y1044W + Q1047S (Homo sapiens) (UniProt Q14671)
T4 sequence: T1 sequence with G36S, A37R, S40Q, N216A, Y217W, Q220S

[5] = molecular target: T5, PUM1 PUF domain R6-SRE N1043S + Y1044R + Q1047E (UniProt Q14671)
T5 sequence: T1 sequence with G36S, A37R, S40Q, N216S, Y217R, Q220E

[6] = molecular target: T6, PUM1 PUF domain R6-TFE N1043T + Y1044F + Q1047E (UniProt Q14671)
T6 sequence: T1 sequence with G36S, A37R, S40Q, N216T, Y217F, Q220E

[7] = molecular target: T7, PUM1 PUF domain R6-TRE N1043T + Y1044R + Q1047E (UniProt Q14671)
T7 sequence: T1 sequence with G36S, A37R, S40Q, N216T, Y217R, Q220E

[8] = molecular target: T8, PUM1 PUF domain R6-FRE N1043F + Y1044R + Q1047E (UniProt Q14671)
T8 sequence: T1 sequence with G36S, A37R, S40Q, N216F, Y217R, Q220E

[9] = molecular target: T9, PUM1 PUF domain R6-FRS N1043F + Y1044R + Q1047S (UniProt Q14671)
T9 sequence: T1 sequence with G36S, A37R, S40Q, N216F, Y217R, Q220S

[10] = molecular target: T10, PUM1 PUF domain R6-NFW Y1044F + Q1047W (UniProt Q14671)
T10 sequence: T1 sequence with G36S, A37R, S40Q, Y217F, Q220W

[11] = molecular target: T11, PUM1 PUF domain R6-RPG N1043R + Y1044P + Q1047G (UniProt Q14671)
T11 sequence: T1 sequence with G36S, A37R, S40Q, N216R, Y217P, Q220G

[12] = molecular target: T12, PUM1 PUF domain R6-SFV N1043S + Y1044F + Q1047V (UniProt Q14671)
T12 sequence: T1 sequence with G36S, A37R, S40Q, N216S, Y217F, Q220V

[13] = molecular target: T13, PUM1 PUF domain R3-THE R4-TFR C935T + R936H + Q939E + N971T + H972F + Q975R (Homo sapiens) (UniProt Q14671)
T13 sequence: T1 sequence with G36S, A37R, S40Q, C108T, R109H, Q112E, N144T, H145F, Q148R

[14] = molecular target: T14, PUM1 PUF domain R6-SWD R7-NPG N1043S + Y1044W + Q1047D + S1079N + N1080P + E1083G (Homo sapiens) (UniProt Q14671)
T14 sequence: T1 sequence with G36S, A37R, S40Q, N216S, Y217W, Q220D, S252N, N253P, E256G

[15] = molecular target: T15, PUM1 PUF domain R3-THE R4-TFR C935T + R936H + Q939E + N971T + H972F + Q975R (UniProt Q14671)
T15 sequence: T1 sequence with G36S, A37R, S40Q, C108T, R109H, Q112E, N144T, H145F, Q148R

[16] = molecular target: T16, PUM1 PUF domain R3-THE R4-TFR R7-NPG C935T + R936H + Q939E + N971T + H972F + Q975R + S1079N + N1080P + E1083G (Homo sapiens) (UniProt Q14671)
T16 sequence: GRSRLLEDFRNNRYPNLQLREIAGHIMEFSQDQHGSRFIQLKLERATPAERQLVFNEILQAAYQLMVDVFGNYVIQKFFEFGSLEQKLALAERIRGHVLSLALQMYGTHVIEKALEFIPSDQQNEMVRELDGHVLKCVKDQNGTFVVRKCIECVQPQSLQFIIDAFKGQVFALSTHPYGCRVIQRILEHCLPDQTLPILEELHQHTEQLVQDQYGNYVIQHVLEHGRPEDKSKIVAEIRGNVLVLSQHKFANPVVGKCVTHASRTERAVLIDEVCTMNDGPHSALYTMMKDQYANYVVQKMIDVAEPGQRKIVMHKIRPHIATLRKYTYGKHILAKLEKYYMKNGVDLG

[17] = molecular target: T17, PUM1 PUF domain R3-THE R4-TFR R7-NPG C935T + R936H + Q939E + N971T + H972F + Q975R + S1079N + N1080P + E1083G (UniProt Q14671)
T17 sequence: T16 sequence

[18] = molecular target: T18, PUM1 PUF domain R1-QFR R2-VFQ R7-NPG S863Q + R864F + Q867R + N899V + Y900F + S1079N + N1080P + E1083G (UniProt Q14671)
T18 sequence: T1 sequence with G36Q, A37F, S40R, N72V, Y73F, S252N, N253P, E256G

[19] = molecular target: T19, PUM1 PUF domain R2-VFQ R3-THE R4-TFR N899V + Y900F + C935T + R936H + Q939E + N971T + H972F + Q975R (UniProt Q14671)
T19 sequence: T16 sequence with N72V, Y73F, N252S, P253N, G256E

[20] = molecular target: T20, PUM1 PUF domain R5-PHQ R6-SWD C1007P + R1008H + N1043S + Y1044W + Q1047D (UniProt Q14671)
T20 sequence: T1 sequence with G36S, A37R, S40Q, C180P, R181H, N216S, Y217W, Q220D

**Q.** For “GGCUAGAACUAGUGGAUCCCCCGGCGCCCGGCGGCUCGAGCCCGGGUAAGUGUAAAUGGUCUGCAUGCCGCCGGGCGCCAUGCCUGCAGGUCGACUCUAGAAAACAUG”, which binding signal (log2 enrichment (interaction score)) [1] is on record?
**A.** -5.1

**Q.** “GGCUAGAACUAGUGGAUCCCCCGGCGCCCGGCGGCUCGAGCCCGGGUAAGUGUAAAUCGUCUGCAUGCCGCCGGGCGCCAUGCCUGCAGGUCGACUCUAGAAAACAUG” was tested. Which binding signal (log2 enrichment (interaction score)) [2] did it give?
**A.** -0.82

**Q.** What about the binding signal (log2 enrichment (interaction score)) [3] of the same sequence?
**A.** -2.42

**Q.** What does the source list for “GGCUAGAACUAGUGGAUCCCCCGGCGCCCGGCGGCUCGAGCCCGGGUAAGUGUAAAUUGUCUGCAUGCCGCCGGGCGCCAUGCCUGCAGGUCGACUCUAGAAAACAUG”?
**A.** binding signal (log2 enrichment (interaction score)) [1]: -3.99; binding signal (log2 enrichment (interaction score)) [2]: -1.27

**Q.** “GGCUAGAACUAGUGGAUCCCCCGGCGCCCGGCGGCUCGAGCCCGGGUAAGUGUAAAUAGUCUGCAUGCCGCCGGGCGCCAUGCCUGCAGGUCGACUCUAGAAAACAUG” was tested. Which binding signal (log2 enrichment (interaction score)) [4] did it give?
**A.** -2.33

**Q.** What about the binding signal (log2 enrichment (interaction score)) [5] of the same sequence?
**A.** < -7.75

**Q.** And the binding signal (log2 enrichment (interaction score)) [6]?
**A.** -4.83

**Q.** What about the binding signal (log2 enrichment (interaction score)) [7] of the same sequence?
**A.** < -6.77

**Q.** Which binding signal (log2 enrichment (interaction score)) [4] does the source give for “GGCUAGAACUAGUGGAUCCCCCGGCGCCCGGCGGCUCGAGCCCGGGUAAGUGGAAAUAGUCUGCAUGCCGCCGGGCGCCAUGCCUGCAGGUCGACUCUAGAAAACAUG” here?
**A.** -3.79

**Q.** What about the binding signal (log2 enrichment (interaction score)) [8] of the same sequence?
**A.** < -9.06

**Q.** And the binding signal (log2 enrichment (interaction score)) [9]?
**A.** < -7.06

**Q.** What about the binding signal (log2 enrichment (interaction score)) [10] of the same sequence?
**A.** -5.84

**Q.** And the binding signal (log2 enrichment (interaction score)) [11]?
**A.** < -9.02

**Q.** And the binding signal (log2 enrichment (interaction score)) [12]?
**A.** < -8.64

**Q.** Which binding signal (log2 enrichment (interaction score)) [8] does the source give for “GGCUAGAACUAGUGGAUCCCCCGGCGCCCGGCGGCUCGAGCCCGGGUAAGUGAAAAUAGUCUGCAUGCCGCCGGGCGCCAUGCCUGCAGGUCGACUCUAGAAAACAUG” here?
**A.** < -9.4

**Q.** What about the binding signal (log2 enrichment (interaction score)) [9] of the same sequence?
**A.** < -8.16

**Q.** And the binding signal (log2 enrichment (interaction score)) [10]?
**A.** -3.98

**Q.** And the binding signal (log2 enrichment (interaction score)) [11]?
**A.** < -9.26

**Q.** What about the binding signal (log2 enrichment (interaction score)) [12] of the same sequence?
**A.** -4.81

**Q.** What about the binding signal (log2 enrichment (interaction score)) [5] of the same sequence?
**A.** -8.78

**Q.** What about the binding signal (log2 enrichment (interaction score)) [6] of the same sequence?
**A.** -3.86

**Q.** What about the binding signal (log2 enrichment (interaction score)) [7] of the same sequence?
**A.** -6.37

**Q.** “GGCUAGAACUAGUGGAUCCCCCGGCGCCCGGCGGCUCGAGCCCGGGUAAGUGUAGGUAGUCUGCAUGCCGCCGGGCGCCAUGCCUGCAGGUCGACUCUAGAAAACAUG” was tested. Which binding signal (log2 enrichment (interaction score)) [13] did it give?
**A.** -1.74

**Q.** Which binding signal (log2 enrichment (interaction score)) [14] does the source give for “GGCUAGAACUAGUGGAUCCCCCGGCGCCCGGCGGCUCGAGCCCGGGUAAGUUUAAAACGUCUGCAUGCCGCCGGGCGCCAUGCCUGCAGGUCGACUCUAGAAAACAUG” here?
**A.** -0.63

**Q.** With “GGCUAGAACUAGUGGAUCCCCCGGCGCCCGGCGGCUCGAGCCCGGGUAAGUUUAGAACGUCUGCAUGCCGCCGGGCGCCAUGCCUGCAGGUCGACUCUAGAAAACAUG” as the sequence, how does the binding signal (log2 enrichment (interaction score)) [14] read?
**A.** -0.99

**Q.** What does the source list for “GGCUAGAACUAGUGGAUCCCCCGGCGCCCGGCGGCUCGAGCCCGGGUAAGUGUACGUCGUCUGCAUGCCGCCGGGCGCCAUGCCUGCAGGUCGACUCUAGAAAACAUG”?
**A.** binding signal (log2 enrichment (interaction score)) [15]: -7.07; binding signal (log2 enrichment (interaction score)) [16]: -1.77

**Q.** With “GGCUAGAACUAGUGGAUCCCCCGGCGCCCGGCGGCUCGAGCCCGGGUAAGUUGAAAUCGUCUGCAUGCCGCCGGGCGCCAUGCCUGCAGGUCGACUCUAGAAAACAUG” as the sequence, how does the binding signal (log2 enrichment (interaction score)) [16] read?
**A.** -1.82

**Q.** What does the source list for “GGCUAGAACUAGUGGAUCCCCCGGCGCCCGGCGGCUCGAGCCCGGGUAAGUGUAAAAAGUCUGCAUGCCGCCGGGCGCCAUGCCUGCAGGUCGACUCUAGAAAACAUG”?
**A.** binding signal (log2 enrichment (interaction score)) [15]: -6.76; binding signal (log2 enrichment (interaction score)) [17]: -2.96

**Q.** For “GGCUAGAACUAGUGGAUCCCCCGGCGCCCGGCGGCUCGAGCCCGGGUAAGAUGUCUUAGUCUGCAUGCCGCCGGGCGCCAUGCCUGCAGGUCGACUCUAGAAAACAUG”, which binding signal (log2 enrichment (interaction score)) [18] is on record?
**A.** -6.39

**Q.** And the binding signal (log2 enrichment (interaction score)) [19]?
**A.** -5.62

**Q.** And the binding signal (log2 enrichment (interaction score)) [15]?
**A.** -7.89

**Q.** What about the binding signal (log2 enrichment (interaction score)) [16] of the same sequence?
**A.** -1.74

**Q.** What does the source list for “GGCUAGAACUAGUGGAUCCCCCGGCGCCCGGCGGCUCGAGCCCGGGUAAGUUUUAGUAGUCUGCAUGCCGCCGGGCGCCAUGCCUGCAGGUCGACUCUAGAAAACAUG”?
**A.** binding signal (log2 enrichment (interaction score)) [18]: -5.47; binding signal (log2 enrichment (interaction score)) [19]: < -6; binding signal (log2 enrichment (interaction score)) [15]: -7.83; binding signal (log2 enrichment (interaction score)) [16]: -1.78; binding signal (log2 enrichment (interaction score)) [20]: -7.6
